# Library screen at single concentrations

The chains behind the UniProt entries cited, without tags or fusion partners.
UniProt P9WPC5, whole entry: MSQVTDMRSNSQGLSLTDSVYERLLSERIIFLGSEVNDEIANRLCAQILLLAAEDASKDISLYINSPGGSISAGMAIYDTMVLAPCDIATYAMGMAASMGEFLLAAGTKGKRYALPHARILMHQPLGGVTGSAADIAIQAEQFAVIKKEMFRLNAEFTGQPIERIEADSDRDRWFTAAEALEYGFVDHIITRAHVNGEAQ
UniProt P9WPC3, whole entry partner: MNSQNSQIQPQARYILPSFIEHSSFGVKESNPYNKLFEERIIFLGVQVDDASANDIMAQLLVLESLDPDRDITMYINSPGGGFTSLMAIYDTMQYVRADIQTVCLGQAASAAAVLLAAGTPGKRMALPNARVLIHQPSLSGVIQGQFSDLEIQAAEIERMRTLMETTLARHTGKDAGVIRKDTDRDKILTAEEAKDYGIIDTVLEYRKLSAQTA

The values are deposited in ChEMBL (CHEMBL3988442, “University of Dundee, Small-Polar-MMV Screening Library” (2021)).

Values are the deposited “Percent Effect”, in %. The record does not define 0% and 100%; most values in the screen are far below 50% and negative numbers occur (in some assays of this library far below -100). The compounds are a random part of those screened. Two or more numbers in one place are separate tests of the same structure; such repeats can differ widely. A dash means the value is not listed here; it may have been measured.

Toxoplasma: 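Assay of Toxoplasma gondii numbers, read through their beta-galactosidase reporter with a colour substrate. Tested at 10 µM. Higher reads as fewer parasites (inferred from which compounds were picked for retests). Of about 67,000 compounds tested this way, about 260 (0.38%) reached 50% or more in at least one test.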
ClpP1P2: 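Protease assay of ClpP1P2, read by the AMC dye that it sets free. Target: ClpP1P2, Mycobacterium tuberculosis (UniProt P9WPC5 and UniProt P9WPC3). Concentration: 50 µM. Higher reads as stronger inhibition, judged from the few compounds that gave an IC50. Most other retested compounds had strongly negative values. About 69,000 compounds were tested under these conditions; 0.015% (about 10) showed 50% or more at least once.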
Leishmania in macrophages: 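Cell assay of Leishmania donovani living inside macrophages; the read-out is not stated. Tested at 30 µM. Higher reads as stronger inhibition (inferred: compounds with an IC50 in retests scored well above the rest). About 69,000 compounds were tested under these conditions; 1.5% (about 1,000) showed 50% or more at least once.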
T. brucei: 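Whole-parasite assay of Trypanosoma brucei over 72 hours; the read-out is not stated. Tested at 30 µM. Higher reads as stronger inhibition (inferred: compounds with an IC50 in retests scored well above the rest). Values scatter widely below zero; nearly all retest evidence comes from the higher of the two concentrations used. About 64,000 compounds were tested under these conditions; 1.5% (about 940) showed 50% or more at least once.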

| structure | Toxoplasma | ClpP1P2 | Leishmania in macrophages | T. brucei |
|---|---|---|---|---|
| `COC(=O)CC(C1=Cc2ccccc2OC1)c1oc(C)cc(=O)c1O` (centres unmarked) | 42.17 | 2.172 | -6.803 and -19.64 | -23.51 |
| `[H][C@@]12CS(=O)(=O)C[C@]1([H])N(C(=O)Nc1ccc(Cl)cc1)CCN2C(=O)CC` | -4.82 | - | -26.93 | - |
| `CCN(CC)Cc1cnc2n1CCN(Cc1c(C)noc1C)CC2.O=C(O)C(F)(F)F.O=C(O)C(F)(F)F` | 2.715 | - | 3.181 | -42.27 |
| `CC(CNCc1ccncc1)Oc1ccccn1.Cl` (centres unmarked) | -2.032 | - | 6.303 | -6.652 |
| `Cc1noc2nc3c(c(C(=O)/N=c4\[nH]nc(C(C)C)s4)c12)CCC3` | - | -3.887 | 16.63 | -4.633 |
| `Cc1ccc(CN2CCOCC3(CCN(Cc4cccs4)C3)C2)o1` (centres unmarked) | - | -11.17 | - | - |
| `CCN1CCN(C(=O)CCn2cccc2)CC1` | -9.045 | -15.44 | -8.119 and 7.339 | -15.05 |
| `Cl.Cl.c1csc(CN2CCc3c(CNc4nncs4)cncc3C2)c1` | 4.79 | - | -6.442 | -12.21 |
| `[H][C@@]12CCN(Cc3c(C)noc3C)C[C@]1([H])[C@H](C(=O)N1CCCO1)CCO2` | -6.817 | - | -24.66 | 6.557 |
| `Cc1nnsc1C(=O)NCc1cccnc1N1CCc2ccccc2C1` | 5.868 | -17.22 | -1.24 | -12.33 |
| `O=C(O)C(F)(F)F.[H][C@]12CN(CC)C[C@@]1(C(=O)O)CCCN(C(=O)NCc1ccccc1)C2` | -5.619 | - | 13.37 | -29.57 |
| `CCN(Cc1ccc2c(c1)OCCO2)S(=O)(=O)N(C)C(C)C` | -0.6353 | 0.725 | 13.15 | -25.89 |
| `CNC(=O)C1Cn2ccnc2C2(CCN(Cc3ccncc3)CC2)O1.O=C(O)C(F)(F)F.O=C(O)C(F)(F)F.O=C(O)C(F)(F)F` (centres unmarked) | -26.34 | - | 19.73 | -312.8 |
| `CC(C)CN1CCC2(COCc3cnc(-c4ccccc4)nc32)C1.O=C(O)C(F)(F)F` (centres unmarked) | 16.58 | - | 36 | -10.57 |
| `Cc1cnc(N2CCc3ncnc(N4CCN(C)CC4)c3CC2)nc1` | - | 13.72 | - | - |
| `Cc1cc2nc(CO[C@H]3CN(C4CCCCC4)C[C@H]3F)[nH]c2cc1C` | -6.629 | 6.081 | 32.15 | -6.896 |
| `CN(C)C(=O)CN1C(=O)[C@H]2CC[C@@H]1CN(Cc1ccccc1C#N)C2` | - | -4.181 | - | - |
| `CN1CCN(C(=O)C2CCCN(c3cccnn3)C2)CC1` (centres unmarked) | 24.73 | -12.48 | 106.1 and 47.82 | 101 |
| `O=C(Nc1cccnc1-n1cccn1)N1CCCC(N2CCCC2)C1` (centres unmarked) | 1.408 | 4.284 | 15.44 | 12.82 |
| `CC(C)n1cc(CN2CCCN(C(=O)c3cccnc3O)CC2)cn1` | 21.22 | -11.2 | 17.69 | -15.6 |
| `Cc1nc(-c2ccco2)ccc1C(=O)N1CCn2c(C)nnc2C1` | 10.87 | -22.31 | 13.23 | - |
| `CNc1nc(C(=O)N2C[C@H]3CC[C@@H]2CN(C2CCOCC2)C3)cs1` | - | -0.831 | - | - |
| `Cc1cnn(CC(=O)N(CC2CN(C)CCO2)c2nccs2)c1` (centres unmarked) | 8.086 | -11.98 | 9.756 | -0.01999 |
| `Cc1n[nH]cc1CNCc1ccnc(OCC(F)(F)F)c1.Cl` | -0.6321 | - | 28.01 | -25.97 |
| `Cn1c(C(F)(F)F)nn(CCNC(=O)CSCc2ccccc2)c1=O` | 1.095 | -9.807 | 8.09 | -75.6 |
| `CSCCCNc1nccc(-c2cc(C(=O)O)ccn2)n1` | -19.88 | -5.348 | 25.1 | 9.554 |
| `CN1CCC2(CC1)CN(C(=O)c1cnccn1)Cc1ccccc12.O=C(O)C(F)(F)F` | 3.471 | - | 15.49 | -7.96 |
| `CCCC(=O)N1CCCC(c2ccccn2)C1` (centres unmarked) | 0.0646 | -1.24 | -12.12 | - |
| `c1cc(CN2CCCC3(COCCN(Cc4c[nH]nn4)C3)C2)cs1` (centres unmarked) | - | -21.05 | - | - |
| `CC(C)OCC(=O)N1CCC(c2ncncc2-c2ccnc(N)c2)C1` (centres unmarked) | - | -13.05 | -5.314 | - |
| `Cl.Nc1cnn(CC(=O)N2CCCCC2)c1` | -3.036 | - | 6.703 | -25.75 |
| `CC(c1ccccn1)N(C)Cc1ccc(CCC(C)(C)O)cc1` (centres unmarked) | 0.4607 | 1.959 | 34.83 | 3.795 |
| `CN1CCOCC12CCN(c1ccc(C#N)cc1)CC2` | - | 0.4494 | - | - |
| `NC(=O)C(NC(=O)COCCc1ccccc1)c1ccccc1F` (centres unmarked) | 5.487 | -7.499 | -4.155 | -35.67 |
| `c1csc(CN2Cc3nc(CN4CCCC4)oc3C2)c1` | - | -10.15 | - | - |
| `Cc1ccc([C@@H]2CN(C(=O)c3cccnn3)C[C@H]2NC(=O)C2CC2)cc1` | -2.39 | -5.921 | 20.81 | 35.41 |
| `COc1cccc(N2Cc3nc(=O)[nH]n3C2=O)c1` | -7.908 | 5.493 | 20.66 | -24.95 |
| `Cc1nn(C)c(C)c1CCNC(C)c1ccc(-n2ccnc2C)cc1` (centres unmarked) | 1.536 | -10.42 | 38.77 | -0.4017 |
| `Cc1nc(CN2CCCC(Nc3ncnc4c3CCC4)C2)no1` (centres unmarked) | -6.483 | 5.485 | 21.7 | -64.55 |
| `CN1CCn2c(-c3cccc(F)c3)cnc2C12CCN(CC1CC1)CC2.O=C(O)C(F)(F)F.O=C(O)C(F)(F)F.O=C(O)C(F)(F)F` | -0.3976 | - | 7.679 | - |
| `CC(=O)N1CCCC1C(=O)NCCOc1ccc(C(C)C)cc1` (centres unmarked) | 8.202 | 3.76 | 24.88 | - |
| `O=C(NC1CCCC1)[C@H]1C[C@H]2OCC[C@H]2N(Cc2ccoc2)C1` | - | 10.86 | - | - |
| `O=C(O)CC(CC(=O)N(Cc1ccsc1)C1CC1)c1cccs1` (centres unmarked) | -2.826 | -4.088 | 3.893 | -14.15 |
| `c1cnn(C2CN(Cc3noc(C4CC4)n3)C2)c1` | 5.009 | 10.29 | 5.301 | -65.9 |
| `Cc1nc(N2CCCC2)nc2c1CCN(C(=O)CN(C)C)CC2.O=C(O)C(F)(F)F` | -0.8819 | - | 9.379 and 0.5254 | -30.94 |
| `Cc1csc(CN(C)C(=O)c2cccc(CCC(C)(C)O)c2)n1` | 1.71 | 2.49 | 21.6 | -22.27 |
| `CNC(=O)C1(C)CN(Cc2cn(C)c3ccc(F)cc23)CCO1` (centres unmarked) | - | 8.308 | 26.14 | - |
| `CC1CN(c2ccccc2Cl)C(=O)CN1C(=O)c1c[nH]c(=O)c(Cl)c1` (centres unmarked) | 11.19 | -5.551 | -3.295 | -69.92 |
| `CN1CCN(c2ncccc2CNc2ncccc2C#N)CC1` | 4.944 | -1.391 | 48.72 | 11.22 |
| `COc1ccccc1NC(=O)NCC(O)c1ccc(F)cc1F` (centres unmarked) | -14.06 | 14.31 | -14.92 | -0.9031 |
| `O=C(O)C(F)(F)F.[H][C@@]12CCN(c3ccc(C)nn3)[C@@]1([H])CCN2C(=O)Cc1ccsc1` | 3.126 | - | 27.11 | -74.35 |
| `COCc1nn(Cc2ccc(Cl)s2)c(=O)o1` | 11.6 | -12.42 | -28.38 | -5.602 |
| `C1CC(c2noc(C3CC3)n2)CN(CCOCC2CC2)C1` (centres unmarked) | 10.99 | 8.141 | 34.2 | -33.48 |
| `CCC(=O)N1CCC2(COCc3c(C)nc(NCc4ccco4)nc32)C1` (centres unmarked) | -7.422 | -6.109 | 15.22 | - |
| `CCOc1cc(C)nc(N2CCN(C(=O)c3cc(Cl)c[nH]3)CC2)n1` | 11.07 | -11.95 | 29.64 | -40.42 |
| `CN1CCOC(CNCC(=O)NCCC2=CCCCC2)C1` (centres unmarked) | -10.79 | 8.86 | 0.5751 | -22.04 |
| `CC1CNC(=O)CCN1Cc1cc(O)c2cccc(F)c2n1` (centres unmarked) | -1.186 | -8.417 | 23.6 | -3.011 |
| `O=C1CCCC2(CCN(C(=O)c3ccccn3)CC2)N1` | - | -0.5459 | - | - |
| `c1ccn(Cc2noc3c2CN(Cc2ccsc2)CC3)c1` | - | -9.392 | - | - |
| `Cc1cnn(CCC(=O)NCc2ccc(N(C)C)c(C)c2)c1` | -1.104 | -4.608 | 19.41 | -37.69 |
| `CCc1ncnc2c1CCN(Cc1ccccn1)CC2` | - | 1.736 | - | - |
| `COc1ccc2c(c1)s/c(=N\C(=O)CSCC(=O)Nc1nccs1)n2C` | -8.494 | 15.27 | 14.32 and 9.536 | -39.94 |
| `O=C(O)C(F)(F)F.c1cnc(N2CCCC3(CCN(CC4CCC4)C3)C2)nc1` (centres unmarked) | 8.302 | - | 67.66 | 9.1 |
| `COCCc1noc(CN2CCCC2c2c(C)nn(C)c2C)n1` (centres unmarked) | 10.71 | 2.061 | 9.759 | -17.71 |
| `CC(Cc1ccccc1Br)NC(=O)CCS(C)(=O)=O` (centres unmarked) | -11.16 | -8.38 | 25.03 | -10.56 |
| `Cc1cccc(CN2CCCC3(CCN(C4CCSCC4)C3)C2=O)c1` (centres unmarked) | -5.915 | -16.03 | -22.38 | -98.53 |
| `C[S+]([O-])c1nncn1CC(=O)c1ccc(OC(F)F)cc1` (centres unmarked) | 10.03 | 5.266 | 21.94 | -7.163 |
| `OC(COc1ccccc1)CN1CCC(c2ccn[nH]2)CC1` (centres unmarked) | - | 3.916 | 26.53 | -29.13 |